Results as given in US20190352689A1.
No constants are given. Whether binding was seen depends on the method and setting. For part of these data: In cells and extracts the contact can be indirect. Some binding calls cover weakened binding; strength is not graded here. Sequences can lack the tags named with a protein.

Amino acid sequences for entries named in this document (tags omitted). A change or cut given only in a name is not applied to a line headed by its entry.
UniProt Q14764: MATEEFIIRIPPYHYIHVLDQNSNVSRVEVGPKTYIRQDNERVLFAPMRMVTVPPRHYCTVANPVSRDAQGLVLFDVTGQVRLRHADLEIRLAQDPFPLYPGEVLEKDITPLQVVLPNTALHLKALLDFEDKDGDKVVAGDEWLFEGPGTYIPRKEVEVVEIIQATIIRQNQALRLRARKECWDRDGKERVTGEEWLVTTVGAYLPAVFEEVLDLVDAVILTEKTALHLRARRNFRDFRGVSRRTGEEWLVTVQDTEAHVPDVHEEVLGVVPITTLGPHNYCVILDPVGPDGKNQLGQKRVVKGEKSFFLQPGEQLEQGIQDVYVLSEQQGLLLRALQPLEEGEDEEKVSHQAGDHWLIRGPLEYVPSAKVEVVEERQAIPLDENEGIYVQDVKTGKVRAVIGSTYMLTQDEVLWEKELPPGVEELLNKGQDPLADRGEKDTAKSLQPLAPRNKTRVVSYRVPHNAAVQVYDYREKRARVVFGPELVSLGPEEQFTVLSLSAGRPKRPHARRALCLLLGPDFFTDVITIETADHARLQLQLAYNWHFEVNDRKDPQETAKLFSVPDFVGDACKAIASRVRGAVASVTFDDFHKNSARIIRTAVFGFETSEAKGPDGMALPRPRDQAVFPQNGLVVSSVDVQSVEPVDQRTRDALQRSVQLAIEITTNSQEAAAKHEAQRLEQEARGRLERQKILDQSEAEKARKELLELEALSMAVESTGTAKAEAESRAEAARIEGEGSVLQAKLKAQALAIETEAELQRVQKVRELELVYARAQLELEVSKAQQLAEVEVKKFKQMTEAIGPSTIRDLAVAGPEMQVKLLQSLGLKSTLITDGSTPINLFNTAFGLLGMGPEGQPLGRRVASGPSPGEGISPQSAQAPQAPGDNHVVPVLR

Tests used:
[1] = molecular target: yeast vaults (recombinant vault particles assembled from human MVP expressed in Pichia pastoris) (human) (UniProt Q14764); assay: co-purification with vaults, SDS-PAGE with Coomassie staining
[2] = molecular target: yeast vaults (recombinant vault particles assembled from human MVP expressed in Pichia pastoris) (human) (UniProt Q14764); assay: FPLC co-purification, SDS-PAGE, EM (FIG. 10)
[3] = molecular target: insect vaults (recombinant vault particles of human MVP produced in Sf9 insect cells) (human) (UniProt Q14764); assay: mINT fusion packaging into vaults from Sf9 host cells
[4] = molecular target: yeast vaults (recombinant vault particles assembled from human MVP expressed in Pichia pastoris) (human) (UniProt Q14764); assay: packaging by mixing lysates, FPLC purification, SDS-PAGE, EM
[5] = molecular target: insect vaults (recombinant vault particles of human MVP produced in Sf9 insect cells) (human) (UniProt Q14764); assay: mINT fusion packaging, comparison of yeast and insect vaults
[6] = molecular target: yeast vaults (recombinant vault particles assembled from human MVP expressed in Pichia pastoris) (human) (UniProt Q14764); assay: as above
[7] = molecular target: insect vaults (recombinant vault particles of human MVP produced in Sf9 insect cells) (human) (UniProt Q14764); assay: average number of mINT passenger molecules per vault particle, Sf9-produced vaults compared with yeast vaults
[8] = molecular target: yeast vaults (recombinant vault particles assembled from human MVP expressed in Pichia pastoris) (human) (UniProt Q14764); assay: co-purification, SDS-PAGE with Coomassie staining and TEM (FIG. 5)
[9] = molecular target: yeast vaults (recombinant vault particles assembled from human MVP expressed in Pichia pastoris) (human) (UniProt Q14764); assay: mINT fusion packaging into vaults from yeast host cells

Measured: binding

B1: mCherry-INT (mCherry fused to the INT domain of VPARP) (protein, UniProt Q9UKK3 1563-1724, looked up, not shown: large carriers)
chain: CIQHWQDAVPWTELLSLQTEDGFWKLTPELGLILNLNTNGLHSFLKQKGIQSLGVKGRECLLDLIATMLVLQFIRTRLEKEGIVFKSLMKMDDASISRNIPWAFEAIKQASEWVRRTEGQYPSICPRLELGNDWDSATKQLLGLQPISTVSPLHRVLHYSQG
binds: all assays above
